# Measurements as given in PubChem BioAssay AID2685 (National Center for Advancing Translational Sciences (NCATS), 2010).
# The whole screen tested about 320,000 compounds, of which about 2,100 (0.66%) were called active. Inconclusive results, whose numbers are uncertain, are shown with a selection of clear calls. Calls follow the shape of the dose curve; as a rule, active = well fitted inhibition curve with a large enough effect in the signal ratio, with a control signal flat (not every such curve was filed as active); inconclusive = small, poorly fitted or top-dose-only effect, or effect the other way, or a change in a side signal; inactive = flat fitted curve, though single readings scatter; the % refers to the signal ratio. Potencies of inconclusive entries are doubtful fits and often do not repeat.
# Assay: qHTS Assay for Lipid Storage Modulators in Drosophila S3 Cells
# Details: BODIPY lipid droplet fluorescence, 18-24 h, cells fed with added oleic acid; lipid storage change, negative = inhibition: at 46.1 µM (top of the series) unless noted
# In short: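 Drosophila S3 cells got compounds at several concentrations plus oleic acid (400 uM solution). Laser-scanning cytometry with 488 nm excitation read lipid droplets at 500-530 nm and cells at 575-640 nm. Percent activity was relative to 20 uM Triacsin C.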
# % is scaled to controls: 0 for no effect and ±100 for the full control effect; potency is read from the fitted curve at half-maximal effect.
SMILES,"lipid storage change, negative = inhibition",Potency
COc1ccc(OCC(=O)NCCNC(=O)c2ccccn2)cc1,inconclusive: 7.59%,
O=S(=O)(N/N=C/c1ccc(F)cc1)c1ccccc1,inconclusive: 16.6%,
O=C(NC1CCCCC1)C(=O)N(Cc1cccnc1)C(C(=O)NCc1ccco1)c1ccccc1 (stereo not drawn),inconclusive: 9.8%,
COc1ccc(CN2CCNC(=O)C2CC(=O)N(C)Cc2nc(C)cs2)c(OC)c1 (stereo not drawn),inconclusive: 12.6%,
Cc1ccc(C)c(N(CC(=O)NC2CCCCC2)C(=O)c2snc(C(N)=O)c2N)c1,inactive,
CCOC(=O)C1CCCN(C(=O)c2cc(S(=O)(=O)Nc3ccccc3OC)ccc2C)C1 (stereo not drawn),inactive,
CC(C)c1nnc(NC(=O)C2CCCN2C(=O)Nc2ccc(F)cc2)s1 (stereo not drawn),,"inconclusive: 25.9 µM [activator, single point]"
O=C(C1CC1)N1CCC(c2nc(-c3ccc(S(=O)(=O)NCC4CCCO4)cc3)no2)CC1 (stereo not drawn),,"inconclusive: 23.1 µM [falling, single point]"
COc1cc(NC(=O)C2CCCN2S(=O)(=O)c2ccc3c(c2)CC(C)N3C(C)=O)cc(OC)c1 (stereo not drawn),inconclusive: 72.6%,
CC(OC(=O)c1ccc(F)c(S(=O)(=O)N2CCOCC2)c1)C(=O)NC1CCCC1 (stereo not drawn),inconclusive,
N#CC(Cc1ccccc1OC(F)F)c1nc2ccccc2[nH]1 (stereo not drawn),inconclusive: -42.6%,
CCC(C(=O)OC)n1cnc2scc(-c3ccc(C)cc3)c2c1=O (stereo not drawn),,"inconclusive: 29.1 µM [falling, single point]"
CCOCCCNC(=O)c1oc2ccc(S(=O)(=O)N3CCOCC3)cc2c1C,,active: 18.4 µM
COc1cc(C(=O)Nc2ccc(NC(=O)c3cccc(Cl)c3)nc2)cc(OC)c1OC,inconclusive: -68.2%,
COc1cc(Cl)ccc1OCc1cc(C(=O)N(C)CC2CCCCO2)no1 (stereo not drawn),inconclusive: 19.9%,
CC(C(=O)NCc1ccco1)n1ccc2cc(S(=O)(=O)N3CCCCC3)ccc21 (stereo not drawn),,"inconclusive: 29.1 µM [activator, single point]"
CCOC(=O)CSc1nnc(-c2c[nH]c3ccccc23)n1CC,,"inconclusive: 18.4 µM [cytotoxic, partial curve]"
C=CCNc1nc2ccccc2nc1NS(=O)(=O)c1ccc(Cl)cc1,,"inconclusive: 14.6 µM [falling, partial curve]"
CCN(CC(=O)NCc1cccs1)C(=O)/C=C/c1ccc(OC)cc1OC,inconclusive: 12%,
COc1ccc(CCN2CC(C(=O)OCC(=O)NC(C)c3cccc(Cl)c3)CC2=O)cc1OC (stereo not drawn),,"inconclusive: 8.2 µM [activator, partial curve]"
CCCOc1ccccc1/C=C1\SC(N2CCCCC2)=NC1=O,,"inconclusive: 23.1 µM [falling, single point]"
Cc1ccccc1COc1ccc(/C=C(\C#N)C(N)=O)cc1,inconclusive: -57.8% [at 0.00295 µM],
O=C(O)CNc1ncccc1[N+](=O)[O-],inconclusive: 76.9%,
O=C(NCc1ccccc1)C(c1ccccn1)N(C(=O)c1csnn1)c1ccccc1F (stereo not drawn),inconclusive: 144%,

# Part of the list above, with tabs:
SMILES	lipid storage change, negative = inhibition	Potency
N#CC(Cc1ccccc1OC(F)F)c1nc2ccccc2[nH]1 (stereo not drawn)	inconclusive: -42.6%	
CCC(C(=O)OC)n1cnc2scc(-c3ccc(C)cc3)c2c1=O (stereo not drawn)		inconclusive: 29.1 µM [falling, single point]
CCOCCCNC(=O)c1oc2ccc(S(=O)(=O)N3CCOCC3)cc2c1C		active: 18.4 µM
COc1cc(C(=O)Nc2ccc(NC(=O)c3cccc(Cl)c3)nc2)cc(OC)c1OC	inconclusive: -68.2%	
COc1cc(Cl)ccc1OCc1cc(C(=O)N(C)CC2CCCCO2)no1 (stereo not drawn)	inconclusive: 19.9%	
CC(C(=O)NCc1ccco1)n1ccc2cc(S(=O)(=O)N3CCCCC3)ccc21 (stereo not drawn)		inconclusive: 29.1 µM [activator, single point]
CCOC(=O)CSc1nnc(-c2c[nH]c3ccccc23)n1CC		inconclusive: 18.4 µM [cytotoxic, partial curve]
C=CCNc1nc2ccccc2nc1NS(=O)(=O)c1ccc(Cl)cc1		inconclusive: 14.6 µM [falling, partial curve]
CCN(CC(=O)NCc1cccs1)C(=O)/C=C/c1ccc(OC)cc1OC	inconclusive: 12%	

# (cont.)

SMILES,"lipid storage change, negative = inhibition",Potency
CCCCNc1ncnc2c1nnn2Cc1ccccc1Cl,inconclusive: -0.431%,
CCOc1cc(N2CCOCC2)c(OCC)cc1NC(=O)CN1C(=O)NC(CC(C)C)C1=O (stereo not drawn),inconclusive: -17.8%,
CCOP(=O)(OCC)c1nc(-c2ccccc2Cl)oc1N1CCOCC1,inconclusive: 40.6%,
O=C(C1COc2ccccc2O1)N1CCN(c2ccccn2)CC1 (stereo not drawn),inconclusive: 33.6%,
CC(O)CNc1ncnc2cc(-c3ccc(F)cc3)sc12 (stereo not drawn),,"inconclusive: 1.3 µM [activator, partial curve]"
N#Cc1ccccc1OCC(=O)OCC(=O)NC1CC1,,"inconclusive: 0.82 µM [activator, single point]"
Cc1cc(C(=O)CSc2nnnn2-c2ccc(O)cc2)c(C)n1Cc1ccc2c(c1)OCO2,,"inconclusive: 10.3 µM [activator, partial curve]"
Cc1ccccc1-c1ccc(C(=O)Nc2cccc(F)c2)o1,inconclusive: 26.4%,
N#Cc1ccsc1NC(=O)CN1CCOCC1,inconclusive: -21%,
CCc1nc2scc(-c3ccccc3)c2c(=O)n1N,,"inconclusive: 0.651 µM [rising, single point]"
CC12OC1C1(O)CCCC1=CC2=O (stereo not drawn),,"inconclusive: 29.1 µM [falling, single point]"
C/C(CC(=O)Nc1ccccc1)=N\NC(=O)COc1ccc(C)cc1Br,inconclusive: 0.62%,
Cc1ccc(S(C)(=O)=O)cc1C(=O)NC(C)C1CC2CCC1C2 (stereo not drawn),inconclusive: -1.97%,
COCC(=O)Nc1nnc(C2CCCCC2)s1,,"inconclusive: 29.1 µM [falling, single point]"
COC(=O)C1(CCSC)NC(c2ccccc2OC)C2C(=O)N(C)C(=O)C21 (stereo not drawn),inconclusive: -26%,
Cc1ccc(-n2nc3ccc(NC(=S)NC(=O)/C=C/c4ccco4)cc3n2)cc1,inconclusive: -21%,
Cc1cc2c(c(=O)n1CC1CCCO1)C(c1ccco1)C(C#N)=C(N)O2 (stereo not drawn),inconclusive: 29.1%,
COc1ccc(Nc2nc(Cl)nc(N3CCN(c4ccc(OC)cc4)CC3)n2)cc1,inconclusive: -23.5%,
CCOc1ccc(N(CC(=O)Nc2ccc(OC)cc2)C2=NC3CS(=O)(=O)CC3S2)cc1 (stereo not drawn),inconclusive: 3.9%,
CCOc1ccc2[nH]c(C(=O)N/N=C/c3ccccc3OC)cc2c1,,"inconclusive: 29.1 µM [cytotoxic, single point]"
COC(=O)c1ccccc1NC(=O)CN(Cc1ccc(Cl)cc1)S(C)(=O)=O,,"inconclusive: 8.2 µM [activator, partial curve, poor fit]"
CCOc1ccc(OCC)c(S(=O)(=O)n2cc(C)nc2CC)c1,inconclusive: -21.9%,
COc1ccc(S(=O)(=O)N2CCCCCC2)cc1C(=O)N(C)CC(=O)Nc1ccccc1Cl,,"inconclusive: 3.66 µM [activator, full curve, poor fit]"
CCCCn1c(SCC(=O)NC2CCCC2)nc2ccccc2c1=O,,"inconclusive: 20.6 µM [rising, partial curve]"
